Patent publication US20120308568A1
These are yes or no findings as the source states them, for the method shown. For some assays here: In cells and extracts the contact can be indirect. Some entries that bind do so weakly or less than the wild type.

Amino acid sequences for entries named in this document (tags omitted). A change or cut given only in a name is not applied to a line headed by its entry. Residues count along the entry.
UniProt Q9Y6K9: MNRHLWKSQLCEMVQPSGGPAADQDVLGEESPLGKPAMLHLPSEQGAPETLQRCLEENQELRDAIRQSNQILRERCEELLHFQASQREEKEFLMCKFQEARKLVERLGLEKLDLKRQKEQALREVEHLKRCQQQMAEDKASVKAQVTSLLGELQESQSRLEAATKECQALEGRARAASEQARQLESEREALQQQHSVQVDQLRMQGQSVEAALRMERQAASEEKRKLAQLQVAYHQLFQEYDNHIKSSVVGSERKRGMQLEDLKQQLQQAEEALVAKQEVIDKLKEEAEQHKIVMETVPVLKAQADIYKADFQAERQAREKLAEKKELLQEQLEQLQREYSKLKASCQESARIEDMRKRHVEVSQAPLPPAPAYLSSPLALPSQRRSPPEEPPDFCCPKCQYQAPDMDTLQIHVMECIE
UniProt P10809, residues 27-573: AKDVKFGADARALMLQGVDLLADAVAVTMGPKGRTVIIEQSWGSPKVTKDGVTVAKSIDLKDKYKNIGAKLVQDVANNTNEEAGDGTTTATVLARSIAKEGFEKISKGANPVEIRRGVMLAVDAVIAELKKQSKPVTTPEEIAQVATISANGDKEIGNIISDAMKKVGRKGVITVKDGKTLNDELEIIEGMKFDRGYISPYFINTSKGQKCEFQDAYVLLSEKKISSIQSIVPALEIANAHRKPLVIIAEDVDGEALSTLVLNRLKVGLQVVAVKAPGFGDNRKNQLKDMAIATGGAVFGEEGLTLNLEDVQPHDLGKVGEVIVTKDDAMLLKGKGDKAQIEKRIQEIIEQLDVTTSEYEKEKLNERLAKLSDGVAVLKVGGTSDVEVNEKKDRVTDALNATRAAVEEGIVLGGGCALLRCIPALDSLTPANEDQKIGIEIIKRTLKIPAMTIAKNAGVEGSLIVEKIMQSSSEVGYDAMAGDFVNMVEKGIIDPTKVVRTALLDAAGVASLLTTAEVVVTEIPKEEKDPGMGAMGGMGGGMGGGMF

Key:
[1] = target: T1, IKK complex, endogenous in HeLa cells (IKKα/β/γ subunits) (human) (UniProt O15111+O14920+Q9Y6K9); assay: immuno-affinity purification of IKK complex from unstimulated HeLa S3 lysate with anti-IKKα antibody beads; LC-MS/MS, confirmed by immunoblot
[2] = target: T1, IKK complex, endogenous in HeLa cells (IKKα/β/γ subunits) (human); assay: reverse immunoprecipitation from HeLa cytosolic fraction with anti-Hsp60 antibodies; IKKγ immunoblot
[3] = target: T2, IKKβ, endogenous in HeLa cells (human) (UniProt O14920); assay: immuno-gold electron microscopy of HeLa cells, anti-Hsp60/IKKβ double staining (FIG. 7F)
T2 sequence (looked up): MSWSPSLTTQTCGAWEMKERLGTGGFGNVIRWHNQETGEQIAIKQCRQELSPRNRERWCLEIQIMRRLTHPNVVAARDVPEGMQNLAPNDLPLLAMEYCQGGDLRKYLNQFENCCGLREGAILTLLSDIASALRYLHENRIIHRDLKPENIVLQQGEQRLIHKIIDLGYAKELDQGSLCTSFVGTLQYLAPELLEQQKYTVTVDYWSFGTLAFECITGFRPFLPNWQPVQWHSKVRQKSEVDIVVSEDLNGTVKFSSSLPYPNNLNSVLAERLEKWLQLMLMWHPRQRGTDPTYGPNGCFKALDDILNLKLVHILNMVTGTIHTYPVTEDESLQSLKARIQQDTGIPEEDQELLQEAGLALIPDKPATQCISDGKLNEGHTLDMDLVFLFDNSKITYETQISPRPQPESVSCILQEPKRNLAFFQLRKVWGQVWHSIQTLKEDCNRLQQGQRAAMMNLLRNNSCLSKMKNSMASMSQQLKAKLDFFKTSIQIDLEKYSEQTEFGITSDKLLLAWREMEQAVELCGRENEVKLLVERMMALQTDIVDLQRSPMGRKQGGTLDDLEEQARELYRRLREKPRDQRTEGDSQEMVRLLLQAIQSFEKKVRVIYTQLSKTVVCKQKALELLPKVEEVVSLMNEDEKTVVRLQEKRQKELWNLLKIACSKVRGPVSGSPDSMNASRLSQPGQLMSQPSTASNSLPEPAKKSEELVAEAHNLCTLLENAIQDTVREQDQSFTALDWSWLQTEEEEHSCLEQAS

[4] = target: T1, IKK complex, endogenous in HeLa cells (IKKα/β/γ subunits) (human); assay: co-immunoprecipitation from HeLa lysate with antibodies against IKKα, IKKβ and IKKγ; immunoblot
[5] = target: T2, IKKβ, endogenous in HeLa cells (human); assay: immuno-gold electron microscopy of HeLa cells, anti-Hsp60/IKKβ (panel F)
[6] = target: T3, IKKα, endogenous in HeLa cells (human) (UniProt O15111); assay: immuno-gold electron microscopy of HeLa cells, anti-Hsp60/IKKα double staining (FIG. 7E)
T3 sequence (looked up): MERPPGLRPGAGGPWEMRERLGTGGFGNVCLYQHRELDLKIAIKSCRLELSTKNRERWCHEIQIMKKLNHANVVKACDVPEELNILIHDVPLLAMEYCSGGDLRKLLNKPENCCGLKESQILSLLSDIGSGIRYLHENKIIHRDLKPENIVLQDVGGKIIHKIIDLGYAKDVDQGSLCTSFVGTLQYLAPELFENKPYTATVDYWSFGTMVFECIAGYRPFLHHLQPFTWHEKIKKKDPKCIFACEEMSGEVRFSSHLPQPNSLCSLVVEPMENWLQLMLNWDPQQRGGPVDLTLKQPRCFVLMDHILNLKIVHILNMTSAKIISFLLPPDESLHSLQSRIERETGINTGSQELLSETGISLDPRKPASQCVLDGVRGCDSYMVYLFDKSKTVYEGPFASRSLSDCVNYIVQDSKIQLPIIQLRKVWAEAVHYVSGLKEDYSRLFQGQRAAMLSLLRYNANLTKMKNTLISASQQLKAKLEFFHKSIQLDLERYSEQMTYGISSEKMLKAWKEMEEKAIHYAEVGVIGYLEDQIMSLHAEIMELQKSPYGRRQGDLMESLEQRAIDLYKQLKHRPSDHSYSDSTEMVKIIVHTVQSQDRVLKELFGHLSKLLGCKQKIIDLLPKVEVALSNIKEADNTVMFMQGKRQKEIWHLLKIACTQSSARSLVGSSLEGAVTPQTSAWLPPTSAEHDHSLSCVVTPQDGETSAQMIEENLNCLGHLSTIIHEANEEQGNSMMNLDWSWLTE

[7] = target: T3, IKKα, endogenous in HeLa cells (human); assay: immuno-gold electron microscopy of HeLa cells, anti-Hsp60/IKKα (panel E)
[8] = target: T1, IKK complex, endogenous in HeLa cells (IKKα/β/γ subunits) (human); assay: co-immunoprecipitation from HeLa lysates with IKKα, IKKβ and IKKγ-specific antibodies; immunoblot

Measured: binding

Hsp60 (heat shock protein 60 kDa), endogenous in HeLa cells (from UniProt P10809 27-573)
binds: all assays above
